Test results reported in patent publication US7922998B2, “Gastrin releasing peptide compounds” (Bracco Imaging S.p.A., priority 2003, dated 2011).

Molecular target: T1, NMB-R (Rattus norvegicus, UniProt P24053)
T1 construct: C6, an NMB-R expressing rodent glioblastoma cell line; host or cells: C6 glioma cells, intact and plated
T1 sequence (P24053 1-390): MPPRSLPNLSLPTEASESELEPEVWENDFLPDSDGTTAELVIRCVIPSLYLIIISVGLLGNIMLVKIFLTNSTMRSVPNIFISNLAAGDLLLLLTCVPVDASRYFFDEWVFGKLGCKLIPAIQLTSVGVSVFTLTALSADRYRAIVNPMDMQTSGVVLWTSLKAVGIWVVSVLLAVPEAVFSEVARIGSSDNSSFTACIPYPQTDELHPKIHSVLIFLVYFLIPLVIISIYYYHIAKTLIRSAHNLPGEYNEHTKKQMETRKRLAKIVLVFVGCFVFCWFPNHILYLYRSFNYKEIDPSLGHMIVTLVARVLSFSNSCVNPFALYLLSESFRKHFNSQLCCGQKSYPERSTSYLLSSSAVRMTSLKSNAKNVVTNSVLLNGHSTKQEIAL
Experiment: Competition with 125I-NMB for NMB-R in C6 cells (Example LX)
Format: binding, rodent
Conditions: Table 10; class cut off 10x the IC50 of [Tyr4]-BBN with 125I-NMB on C6 cells; yes or dash

CSCC[C@H](NC(=O)[C@H](CC(C)C)NC(=O)[C@H](Cc1c[nH]cn1)NC(=O)CNC(=O)[C@@H](NC(=O)[C@H](C)NC(=O)[C@H](Cc1c[nH]c2ccccc12)NC(=O)[C@H](CCC(N)=O)NC(=O)c1ccc(CNC(=O)CN2CCN(CC(=O)O)CCN(CC(=O)O)CCN(CC(=O)O)CC2)cc1)C(C)C)C(N)=O [Compound L71, 4-[[[[4,7,10-Tris(carboxymethyl)-1,4,7,10-tetraazacyclododec-1-yl]acetyl]amino]methyl]benzoyl-L-glutaminyl-L-tryptophyl-L-alanyl-L-valyl-glycyl-L-histidyl-L-leucyl-L-methioninamide]
GRP-R & NMB-R (binds both with similar affinity): yes
